Test results as given in patent US9993562B2, “Metallic gold cluster molecules as therapeutic agents for arthritic animals” (priority 2016, dated 2018).
At least one structure is not confirmed: it was looked up by name or label, or the drawing left a doubt.

Tests used:
Assay type in all cases: in vivo, DBA/1 male mice
[1] = Effect of treatment on body weight of type II collagen immunized mice; details: i.g. 0.5 mg/kg daily from day 22
Procedure: DBA/1 male mice weighted 20-22 grams were purchased from Hua-Fu-Kang Biotechnology Limited, Beijing, China. Type II collagen and Complete Freund's Adjuvant were purchased from Chondrex Inc., Redmond, Wash., USA. […] Gold25(peptide)9 cluster molecules were prepared according to Example 1.
(§1) Type II collagen was dissolved in 0.1 mM acetic acid solution and was emulsified with equal volume of Complete Freund's Adjuvant to make a 1.0 mg/ml Type II collagen emulsion. After one week of resting and environment adjustment, DBA/1 male mice were divided into groups, each group was consisted of 10 mice. Each animal was injected intradermally at the 2-3 cm base of the tail an emulsion of 100 μg Type II collagen. On day 21, a second booster dose of 100 μg Type II collagen emulsion was injected. Negative control group of mice are injected with equal amount of 0.9% Sodium Chloride solution.
(§2) On day 22, groups of mice were given different drugs once each day for 28 days (4 weeks) until day 49 (end of week 7). The groups of mice were examined for inflammation and status.

[2] = system: Collagen induced arthritis in mice; assay: Visual inflammation scoring of paws (0-4 per limb, four limbs summed), collagen induced arthritis; details: oral 0.5 mg/kg body weight; second week of treatment
Description: Collagen induced arthritis in mice has been the standard animal model for studying rheumatoid arthritis and other polyarthritis. DBA/1 male mice weighted 20-22 grams were purchased from Hua-Fu-Kang Biotechnology Limited, Beijing, China. Type II collagen and Complete Freund's Adjuvant were purchased from Chondrex Inc., Redmond, Wash., USA. Auranofin was purchased from Sigma, USA and Dexamethasone was purchased from Jin-Yao Amino Acid Company, Tianjing, China. Gold25(peptide)9 cluster molecules were prepared according to Example 1.
as §1, with “Negative control group of mice are injected with equal amount of 0.9% Sodium Chloride solution.” left out
The inflammation was assessed by means of a visual scoring method where mouse individual paws were graded from 0-4 as follows: […]
4 scores: all ankle and paw swelling. • All four limbs of each mouse were examined and scored, and scores of all four limbs were added together for each mouse.

[3] = system: Collagen induced arthritis in mice; assay: Pictures of hind limb swelling (FIG. 6), collagen induced arthritis; details: end of 7 weeks of the experiment; oral 0.5 mg/kg daily
Procedure: as §1, §2

[4] = system: Collagen induced arthritis in mice; assay: 3D CT scan of paw joints, bone density changes (FIG. 7); details: end of week 7; oral 0.5 mg/kg daily
Procedure: as §1, §2

[5] = system: Collagen induced arthritis in mice; assay: Hematoxylin and eosin histology of hind limb joint sections (FIG. 8); details: H&E; oral 0.5 mg/kg daily
Procedure: as §1, §2
To evaluate the soft tissue damages around the joint area, the joint tissues of the hind limbs of each mouse groups were then fixed, embedded, sectioned into slides and hematoxylin and eosin stained to examine the histology and histopathology changes at the joints.

## C[C@@H]1C[C@H]2[C@@H]3CCC4=CC(=O)C=C[C@]4(C)[C@@]3(F)[C@@H](O)C[C@]2(C)[C@@]1(O)C(=O)CO [DEX, Dexamethasone, reference compound]
[1]
  Body weight loss after collagen immunization (in words): did not reverse the body weight loss
[2]
  Swelling and inflammation (scores, in words): immediately suppressed
[3]
  Hind limb swelling in pictures (FIG. 6): no obvious swelling
[4]
  Bone deformation and osteolysis of paw joints, 3D CT: prevented bone deformation and no obvious osteolysis
[5]
  Joint histopathology (bone erosion, soft tissue damage, synovial macrophage infiltration): no significant bone erosion and no obvious synovial macrophage invasion
